Source: paper doi:10.1101/2020.03.18.994004
These are yes or no findings as the source states them, for the method shown. Some entries that bind do so weakly or less than the wild type.

The chains behind the UniProt entries cited, without tags or fusion partners. Where a name states a change or a piece, a line headed by the entry shows the natural chain unless it says otherwise.
UniProt P35609: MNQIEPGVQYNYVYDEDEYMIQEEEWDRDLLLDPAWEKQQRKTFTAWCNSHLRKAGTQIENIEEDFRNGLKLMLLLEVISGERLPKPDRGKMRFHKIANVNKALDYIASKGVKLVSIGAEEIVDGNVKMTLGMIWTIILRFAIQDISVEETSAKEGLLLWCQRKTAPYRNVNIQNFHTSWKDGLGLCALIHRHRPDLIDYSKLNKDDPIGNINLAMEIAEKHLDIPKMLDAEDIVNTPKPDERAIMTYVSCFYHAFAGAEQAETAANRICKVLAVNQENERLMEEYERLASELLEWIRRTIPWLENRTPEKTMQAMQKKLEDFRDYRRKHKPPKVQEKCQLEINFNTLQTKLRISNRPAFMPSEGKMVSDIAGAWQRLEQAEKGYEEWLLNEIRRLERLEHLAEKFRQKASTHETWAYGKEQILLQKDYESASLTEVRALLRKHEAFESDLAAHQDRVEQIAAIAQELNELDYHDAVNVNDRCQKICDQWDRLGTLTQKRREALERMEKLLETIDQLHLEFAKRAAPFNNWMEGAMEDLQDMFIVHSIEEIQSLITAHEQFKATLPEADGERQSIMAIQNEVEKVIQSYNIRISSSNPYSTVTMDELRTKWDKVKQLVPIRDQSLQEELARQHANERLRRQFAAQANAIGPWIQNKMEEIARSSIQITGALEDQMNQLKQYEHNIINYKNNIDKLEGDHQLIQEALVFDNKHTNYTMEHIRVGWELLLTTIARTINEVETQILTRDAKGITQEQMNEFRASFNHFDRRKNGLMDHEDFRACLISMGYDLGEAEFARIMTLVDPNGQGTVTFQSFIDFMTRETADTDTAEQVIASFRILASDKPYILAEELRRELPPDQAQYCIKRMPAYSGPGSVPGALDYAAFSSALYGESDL

How the values were obtained:
[1] = molecular target: T1, IGF2BP2 KH domain (residues 161-600), mammalian two-hybrid bait (human) (UniProt Q9Y6M1); assay: two-hybrid
T1 sequence: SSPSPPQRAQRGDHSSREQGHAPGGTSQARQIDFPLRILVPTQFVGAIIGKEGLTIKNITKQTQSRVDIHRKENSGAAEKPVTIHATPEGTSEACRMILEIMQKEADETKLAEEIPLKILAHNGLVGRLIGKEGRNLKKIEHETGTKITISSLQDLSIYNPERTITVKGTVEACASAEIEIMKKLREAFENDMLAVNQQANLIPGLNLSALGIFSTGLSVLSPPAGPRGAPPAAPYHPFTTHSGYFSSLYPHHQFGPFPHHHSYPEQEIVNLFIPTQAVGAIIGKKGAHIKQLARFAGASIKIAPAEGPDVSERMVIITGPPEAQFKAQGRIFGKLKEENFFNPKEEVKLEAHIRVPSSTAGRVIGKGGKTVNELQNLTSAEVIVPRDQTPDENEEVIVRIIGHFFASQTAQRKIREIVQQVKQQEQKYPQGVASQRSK

[2] = molecular target: full-length actinin, mammalian two-hybrid bait (human) (UniProt P35609); assay: two-hybrid

| Substance | binding [1] | binding [2] |
| --- | --- | --- |
| actinin rod domain (residues 276-750), mammalian two-hybrid prey (from UniProt P35609 276-750) (domain or fragment) | binds |  |
| full-length IGF2BP2, mammalian two-hybrid prey (from UniProt Q9Y6M1 1-599) |  | binds |
